# Measurements published in the odorant receptor screen of Mainland et al. (2015).
# Several values for one entry are separate records, joined by “and”; a condition that tells them apart may be missing. Equal values may be shown once. The list shows a part of the results. Each value is one well over the wells without odorant, computed here; the data are noisy.
# Tested on: OR2M7 F35L/V78A/C178F clone 1378
# Test: odorant receptor activation (CRE luciferase / Renilla) (fold of no-odor wells); higher = more activation
# Settings: 100 µM
row,SMILES,odorant receptor activation
1,O=CCc1ccccc1 [phenyl acetaldehyde],2.01
2,CC(C)=CCCC(C)=CC=O [citral],0.28
3,"CC1CCC(C(C)C)C(O)C1 (single isomer, unassigned; (+)) [(+)-menthol]",0.768
4,c1cnccn1 [pyrazine],0.984
5,CCCCCCCCC=O [nonyl aldehyde],0.898
6,CC(=O)C(C)=O [diacetyl],1.19
7,CCCCCC(C)=O [2-heptanone],0.85
8,C=CC(C)(O)CCC=C(C)C (centres undefined) [linalool],0.96
9,CC(C)C=O [isobutyraldehyde],0.832
10,CCCC(=O)O [butyric acid],0.204
11,CC12C=CCC1C1CCC3CC(=O)CCC3(C)C1CC2 (centres undefined) [androstenone],1.17
12,CC(=O)c1ccccc1 [acetophenone],0.801
13,CCCCCCC=O [heptaldehyde],1.02 and 0.82
14,CC1COCc2cc3c(cc21)C(C)(C)C(C)C3(C)C (centres undefined) [galaxolide],3.79
15,CCCCCCCC=O [octyl aldehyde],0.839
16,CC(=O)OC(C)(C)C1CC=C(C)CC1 (centres undefined) [terpinyl acetate],0.961
17,CCCCCCCCOC(C)=O [octyl acetate],1.02
18,CCCCCCCCCCC=O [undecanal],1.12
19,CCCCCCCOC(C)=O [heptyl acetate],1.17
20,O=C1CCCCCCCCCCCCCCO1 [pentadecalactone],1.16
21,CC1=NC(C)SC1C (centres undefined),0.731
22,COc1cc(C)ccc1O [2-methoxy-4-methylphenol],1.34
23,COC(=O)c1ccccc1O [methyl salicylate],0.845
24,O=C1CCCCCCCCCCCC(=O)OCCO1 [ethylene brassylate],2.35
25,CCCCO [1-butanol],1.05
26,CC=Cc1ccc(O)c(OC)c1 [isoeugenol],1.73
27,CC(C)C(=O)O [isobutyric acid],0.934
28,CC(=O)OC1CC2CCC1(C)C2(C)C (centres undefined) [isobornyl acetate],1.03

# Tested on: OR2M7 F35L/V78A/C178F/D191N clone 1401
# Test: as above
# Settings: 100 µM
row,SMILES,odorant receptor activation
1,O=CCc1ccccc1 [phenyl acetaldehyde],1.5
2,CC(C)=CCCC(C)=CC=O [citral],0.278
3,"CC1CCC(C(C)C)C(O)C1 (single isomer, unassigned; (+)) [(+)-menthol]",0.6
4,c1cnccn1 [pyrazine],0.877
5,CCCCCCCCC=O [nonyl aldehyde],0.834
6,CC(=O)C(C)=O [diacetyl],0.993
7,CCCCCC(C)=O [2-heptanone],0.917
8,C=CC(C)(O)CCC=C(C)C (centres undefined) [linalool],1.06
9,CC(C)C=O [isobutyraldehyde],0.702
10,CCCC(=O)O [butyric acid],0.226
11,CC12C=CCC1C1CCC3CC(=O)CCC3(C)C1CC2 (centres undefined) [androstenone],0.997
12,CC(=O)c1ccccc1 [acetophenone],0.962
13,CCCCCCC=O [heptaldehyde],1.33 and 0.563
14,CC1COCc2cc3c(cc21)C(C)(C)C(C)C3(C)C (centres undefined) [galaxolide],2.67
15,CCCCCCCC=O [octyl aldehyde],0.722
16,CC(=O)OC(C)(C)C1CC=C(C)CC1 (centres undefined) [terpinyl acetate],0.87
17,CCCCCCCCOC(C)=O [octyl acetate],0.985
18,CCCCCCCCCCC=O [undecanal],1
19,CCCCCCCOC(C)=O [heptyl acetate],0.838
20,O=C1CCCCCCCCCCCCCCO1 [pentadecalactone],1.25
21,CC1=NC(C)SC1C (centres undefined),0.96
22,COc1cc(C)ccc1O [2-methoxy-4-methylphenol],1.05
23,COC(=O)c1ccccc1O [methyl salicylate],0.951
24,O=C1CCCCCCCCCCCC(=O)OCCO1 [ethylene brassylate],1.49
25,CCCCO [1-butanol],1.22
26,CC=Cc1ccc(O)c(OC)c1 [isoeugenol],1.07
27,CC(C)C(=O)O [isobutyric acid],0.57
28,CC(=O)OC1CC2CCC1(C)C2(C)C (centres undefined) [isobornyl acetate],0.706

# Tested on: OR2M7 clone 1377
# Test: as above
# Settings: 100 µM
row,SMILES,odorant receptor activation
1,O=CCc1ccccc1 [phenyl acetaldehyde],2.11
2,CC(C)=CCCC(C)=CC=O [citral],0.288
3,"CC1CCC(C(C)C)C(O)C1 (single isomer, unassigned; (+)) [(+)-menthol]",0.75
4,c1cnccn1 [pyrazine],1.06
5,CCCCCCCCC=O [nonyl aldehyde],0.958
6,CC(=O)C(C)=O [diacetyl],0.974
7,CCCCCC(C)=O [2-heptanone],0.764
8,C=CC(C)(O)CCC=C(C)C (centres undefined) [linalool],0.872
9,CC(C)C=O [isobutyraldehyde],1.08
10,CCCC(=O)O [butyric acid],0.261
11,CC12C=CCC1C1CCC3CC(=O)CCC3(C)C1CC2 (centres undefined) [androstenone],1.01
12,CC(=O)c1ccccc1 [acetophenone],0.607
13,CCCCCCC=O [heptaldehyde],0.885 and 1.26
14,CC1COCc2cc3c(cc21)C(C)(C)C(C)C3(C)C (centres undefined) [galaxolide],4.42
15,CCCCCCCC=O [octyl aldehyde],1
16,CC(=O)OC(C)(C)C1CC=C(C)CC1 (centres undefined) [terpinyl acetate],1.05
17,CCCCCCCCOC(C)=O [octyl acetate],1.04
18,CCCCCCCCCCC=O [undecanal],0.98
19,CCCCCCCOC(C)=O [heptyl acetate],1.21
20,O=C1CCCCCCCCCCCCCCO1 [pentadecalactone],1.07
21,CC1=NC(C)SC1C (centres undefined),0.83
22,COc1cc(C)ccc1O [2-methoxy-4-methylphenol],4.18
23,COC(=O)c1ccccc1O [methyl salicylate],0.962
24,O=C1CCCCCCCCCCCC(=O)OCCO1 [ethylene brassylate],1.71
25,CCCCO [1-butanol],0.933
26,CC=Cc1ccc(O)c(OC)c1 [isoeugenol],1.53
27,CC(C)C(=O)O [isobutyric acid],1.05
28,CC(=O)OC1CC2CCC1(C)C2(C)C (centres undefined) [isobornyl acetate],1.15
